{
  "source": "the supplement of paper PMC3334620",
  "note": "Whole data set: some 33,000 sequences, median “E-score (-0.5 to 0.5)” near -0.015, cut for the highest 2% near 0.3. The list shows a part of the results.",
  "data": [
    {"target": "T1, Abf1 (UniProt P14164)", "T1 sequence": "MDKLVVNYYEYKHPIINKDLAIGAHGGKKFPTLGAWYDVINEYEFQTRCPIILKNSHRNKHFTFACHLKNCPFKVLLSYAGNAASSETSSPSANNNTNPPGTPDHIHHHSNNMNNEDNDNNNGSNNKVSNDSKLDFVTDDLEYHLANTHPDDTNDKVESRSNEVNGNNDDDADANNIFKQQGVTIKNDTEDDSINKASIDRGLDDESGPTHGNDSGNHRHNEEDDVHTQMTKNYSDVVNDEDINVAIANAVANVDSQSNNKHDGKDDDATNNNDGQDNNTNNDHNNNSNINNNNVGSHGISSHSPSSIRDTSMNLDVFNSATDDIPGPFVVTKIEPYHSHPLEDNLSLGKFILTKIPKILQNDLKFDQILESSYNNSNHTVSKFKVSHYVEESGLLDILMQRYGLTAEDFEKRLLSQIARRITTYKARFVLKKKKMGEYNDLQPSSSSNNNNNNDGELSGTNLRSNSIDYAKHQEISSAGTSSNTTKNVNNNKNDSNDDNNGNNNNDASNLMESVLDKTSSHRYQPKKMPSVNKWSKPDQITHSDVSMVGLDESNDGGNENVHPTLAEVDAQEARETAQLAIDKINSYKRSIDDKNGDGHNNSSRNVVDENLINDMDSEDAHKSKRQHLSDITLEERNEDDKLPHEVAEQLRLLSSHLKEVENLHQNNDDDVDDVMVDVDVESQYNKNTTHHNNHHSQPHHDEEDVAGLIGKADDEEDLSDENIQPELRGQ", "assay": "PBM E-score (8-mer binding enrichment) (E-score (-0.5 to 0.5)); higher = stronger / more preferred TF binding", "conditions": "protein concentration: 200 nM; construct: GST-full length", "in_short": "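Yeast transcription factors, full-length or as DNA-binding domains, were expressed with a GST tag using PURExpress in vitro transcription/translation. At about 100-200 nM they were applied to universal all-10-mer Agilent arrays, double-stranded by primer extension on fresh or once-stripped slides. Fluorescent anti-GST detected bound protein, and masliner normalised the scans. E-scores for ungapped eight-base words, pooled with reverse complements, came from the Universal PBM Analysis Suite.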", "values": [
      {"sequence": "CGAGAGGA", "PBM E-score": 0.00468},
      {"sequence": "GCTAACCC", "PBM E-score": -0.248},
      {"sequence": "CCCAGCAA", "PBM E-score": -0.0182},
      {"sequence": "AGTTGACC", "PBM E-score": -0.0281},
      {"sequence": "CCAGAGAC", "PBM E-score": -0.279},
      {"sequence": "GATTTCTA", "PBM E-score": 0.114},
      {"sequence": "CGACGGTA", "PBM E-score": 0.322},
      {"sequence": "CATTGCAG", "PBM E-score": 0.0247},
      {"sequence": "AATGCGCT", "PBM E-score": -0.0125},
      {"sequence": "ACGAATGG", "PBM E-score": 0.174},
      {"sequence": "CGCAACCA", "PBM E-score": -0.0327},
      {"sequence": "CAACGCTA", "PBM E-score": -0.076},
      {"sequence": "CTTTGGGC", "PBM E-score": -0.083},
      {"sequence": "GACGGTAC", "PBM E-score": 0.263},
      {"sequence": "ATCACATA", "PBM E-score": 0.276},
      {"sequence": "CACCATGA", "PBM E-score": 0.151},
      {"sequence": "CAGATCTA", "PBM E-score": -0.174},
      {"sequence": "CGCCCCTC", "PBM E-score": -0.253},
      {"sequence": "CACGGGTC", "PBM E-score": -0.0483},
      {"sequence": "GGATTCCA", "PBM E-score": 0.0862},
      {"sequence": "GATGAGCC", "PBM E-score": -0.0772},
      {"sequence": "ATGATAAC", "PBM E-score": 0.339},
      {"sequence": "GGCTTCCA", "PBM E-score": -0.233},
      {"sequence": "ACAACGTC", "PBM E-score": 0.0425},
      {"sequence": "AGGTATGA", "PBM E-score": 0.154},
      {"sequence": "ATGCAACG", "PBM E-score": 0.0677},
      {"sequence": "ACTGATCA", "PBM E-score": 0.212},
      {"sequence": "AATTGCTC", "PBM E-score": -0.24},
      {"sequence": "CGCGAACA", "PBM E-score": 0.00764},
      {"sequence": "ATGACCGC", "PBM E-score": -0.0493},
      {"sequence": "CTTTCCGA", "PBM E-score": -0.246},
      {"sequence": "AGACGCTG", "PBM E-score": -0.202},
      {"sequence": "GGGTGTTA", "PBM E-score": -0.00815},
      {"sequence": "CATCGCAG", "PBM E-score": -0.0266},
      {"sequence": "GCCGTCCA", "PBM E-score": 0.254},
      {"sequence": "GCCCGAAA", "PBM E-score": 0.108},
      {"sequence": "ATAGATTA", "PBM E-score": 0.19},
      {"sequence": "CCGCTTTA", "PBM E-score": -0.0793},
      {"sequence": "AACGACAA", "PBM E-score": 0.308},
      {"sequence": "AAATGATG", "PBM E-score": 0.318},
      {"sequence": "CCCTAGCG", "PBM E-score": -0.296},
      {"sequence": "GACGGAGC", "PBM E-score": -0.0339},
      {"sequence": "ACAATCAA", "PBM E-score": 0.218},
      {"sequence": "CCGTTATC", "PBM E-score": 0.233},
      {"sequence": "AGCGAAGG", "PBM E-score": -0.134},
      {"sequence": "CTCCCTAA", "PBM E-score": -0.0986},
      {"sequence": "AATGCTCA", "PBM E-score": -0.0815},
      {"sequence": "AGATTATC", "PBM E-score": 0.173},
      {"sequence": "CACATTCG", "PBM E-score": 0.0636},
      {"sequence": "ATTACCGA", "PBM E-score": 0.0732},
      {"sequence": "AGTCCACG", "PBM E-score": -0.057},
      {"sequence": "ATCGGTGA", "PBM E-score": 0.261},
      {"sequence": "CACCGGTA", "PBM E-score": 0.051},
      {"sequence": "TATTCGAA", "PBM E-score": 0.0266},
      {"sequence": "CAGCTGTA", "PBM E-score": -0.258},
      {"sequence": "ACGGCTCG", "PBM E-score": 0.159},
      {"sequence": "GTCAACAC", "PBM E-score": -0.00591},
      {"sequence": "CAGAAAAC", "PBM E-score": 0.0948},
      {"sequence": "CTAGTCCC", "PBM E-score": 0.00624},
      {"sequence": "AATGTACT", "PBM E-score": 0.106},
      {"sequence": "CAACAGAC", "PBM E-score": -0.0516},
      {"sequence": "TGACGGCA", "PBM E-score": 0.0724},
      {"sequence": "ATCACTAG", "PBM E-score": 0.357},
      {"sequence": "GGTACACC", "PBM E-score": -0.0434},
      {"sequence": "AATAGAAT", "PBM E-score": 0.117},
      {"sequence": "CACTGGTA", "PBM E-score": 0.0564},
      {"sequence": "CCATCGTC", "PBM E-score": -0.00436},
      {"sequence": "GAGTCCAA", "PBM E-score": -0.134},
      {"sequence": "GTACGCAC", "PBM E-score": -0.132},
      {"sequence": "ACCGGTCA", "PBM E-score": -0.103},
      {"sequence": "ATCGCCCG", "PBM E-score": 0.028},
      {"sequence": "CCAGAACG", "PBM E-score": 0.123},
      {"sequence": "AGCAGGCT", "PBM E-score": -0.228},
      {"sequence": "AATTGCCC", "PBM E-score": -0.0322},
      {"sequence": "CTGACTTA", "PBM E-score": 0.0943},
      {"sequence": "ACTTCTCT", "PBM E-score": 0.0409},
      {"sequence": "CTTGAGTC", "PBM E-score": -0.231},
      {"sequence": "ATAGAGCG", "PBM E-score": -0.101},
      {"sequence": "ATGGTGCA", "PBM E-score": -0.018},
      {"sequence": "ACTGTCAA", "PBM E-score": 0.0961},
      {"sequence": "CTTACATC", "PBM E-score": -0.15},
      {"sequence": "TACCGTGA", "PBM E-score": 0.169},
      {"sequence": "GAGACGGA", "PBM E-score": -0.066},
      {"sequence": "TCATCGAA", "PBM E-score": 0.0681},
      {"sequence": "AGTATGAT", "PBM E-score": 0.199},
      {"sequence": "CCGATCGC", "PBM E-score": 0.00883},
      {"sequence": "AGAGAATC", "PBM E-score": -0.0971},
      {"sequence": "CGAACACA", "PBM E-score": 0.0887},
      {"sequence": "GGGAGATA", "PBM E-score": -0.0848},
      {"sequence": "GGATTGCA", "PBM E-score": -0.177},
      {"sequence": "AAAGGTGA", "PBM E-score": 0.103},
      {"sequence": "GGCGAGCA", "PBM E-score": -0.143},
      {"sequence": "CCGGTGAG", "PBM E-score": -0.106},
      {"sequence": "GTCTAAAA", "PBM E-score": 0.102},
      {"sequence": "ACGTTTTG", "PBM E-score": 0.101},
      {"sequence": "CGCGGTTA", "PBM E-score": -0.131},
      {"sequence": "GCTAATAA", "PBM E-score": 0.0283},
      {"sequence": "GATGATAC", "PBM E-score": 0.297},
      {"sequence": "TACATACA", "PBM E-score": 0.157},
      {"sequence": "ATAAACGG", "PBM E-score": 0.273},
      {"sequence": "AGAAAAGG", "PBM E-score": -0.0809},
      {"sequence": "AATCGTGA", "PBM E-score": 0.175},
      {"sequence": "CCTATCCG", "PBM E-score": -0.134},
      {"sequence": "CGGCGACG", "PBM E-score": 0.21},
      {"sequence": "CGCGTTAA", "PBM E-score": 0.0631},
      {"sequence": "ACCGTAGG", "PBM E-score": 0.0666},
      {"sequence": "CACCCCTG", "PBM E-score": -0.286},
      {"sequence": "GCCCGCGC", "PBM E-score": -0.0863},
      {"sequence": "AATCGTCA", "PBM E-score": 0.334}
    ]}
  ]
}
